Data on 4 molecules can be found in article PMC11671533.

Amino acid sequences for entries named in this document (tags omitted).
UniProt P30622: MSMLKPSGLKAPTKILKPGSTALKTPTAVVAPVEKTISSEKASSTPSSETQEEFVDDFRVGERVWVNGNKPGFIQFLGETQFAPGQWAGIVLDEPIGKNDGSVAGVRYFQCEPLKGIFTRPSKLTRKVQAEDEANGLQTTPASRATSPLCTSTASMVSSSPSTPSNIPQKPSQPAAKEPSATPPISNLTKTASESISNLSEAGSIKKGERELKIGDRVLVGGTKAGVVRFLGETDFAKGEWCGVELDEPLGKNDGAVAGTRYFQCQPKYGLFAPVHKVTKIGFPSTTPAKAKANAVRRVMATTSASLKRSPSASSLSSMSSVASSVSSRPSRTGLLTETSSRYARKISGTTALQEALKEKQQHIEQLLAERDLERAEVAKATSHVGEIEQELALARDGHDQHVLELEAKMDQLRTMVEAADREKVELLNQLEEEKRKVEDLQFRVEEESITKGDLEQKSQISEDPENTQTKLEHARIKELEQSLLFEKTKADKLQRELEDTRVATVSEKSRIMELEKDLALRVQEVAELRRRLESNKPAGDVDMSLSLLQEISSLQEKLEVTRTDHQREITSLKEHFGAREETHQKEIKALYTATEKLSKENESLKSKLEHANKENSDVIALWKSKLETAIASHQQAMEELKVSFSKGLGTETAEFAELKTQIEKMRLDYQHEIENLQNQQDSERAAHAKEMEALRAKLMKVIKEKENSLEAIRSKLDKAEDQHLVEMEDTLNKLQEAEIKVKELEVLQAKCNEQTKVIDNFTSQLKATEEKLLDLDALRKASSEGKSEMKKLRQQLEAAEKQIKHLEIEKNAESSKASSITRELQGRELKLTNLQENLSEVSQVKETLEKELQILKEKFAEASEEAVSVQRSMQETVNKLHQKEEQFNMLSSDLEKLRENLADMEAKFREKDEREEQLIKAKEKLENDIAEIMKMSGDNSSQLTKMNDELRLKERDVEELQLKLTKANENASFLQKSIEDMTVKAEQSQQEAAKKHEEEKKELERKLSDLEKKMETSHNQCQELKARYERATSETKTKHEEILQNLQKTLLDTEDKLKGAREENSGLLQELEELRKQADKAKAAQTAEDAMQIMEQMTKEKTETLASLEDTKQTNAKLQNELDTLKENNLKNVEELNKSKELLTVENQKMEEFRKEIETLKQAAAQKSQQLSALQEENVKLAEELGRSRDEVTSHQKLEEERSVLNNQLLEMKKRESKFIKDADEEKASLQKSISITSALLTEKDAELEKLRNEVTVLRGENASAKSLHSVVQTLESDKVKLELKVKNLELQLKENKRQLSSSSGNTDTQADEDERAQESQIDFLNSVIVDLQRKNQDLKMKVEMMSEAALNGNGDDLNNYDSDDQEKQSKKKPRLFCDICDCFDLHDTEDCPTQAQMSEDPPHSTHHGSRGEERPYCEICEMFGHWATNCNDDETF

No constants are given. Whether binding was seen depends on the method and setting. In cells and extracts the contact can be indirect. Some entries that bind do so weakly or less than the wild type. Tags and fused reporters may be left off the sequences shown.

First the molecules themselves.
B1: His-TFPI2(ΔKD2) (protein, UniProt P48307)
chain: DAAQEPTGNNAEICLLPLDYGPCRALLLRYYYDRYTQSCRQFLYGGCEGNANNFYTWEACDDACWRIEKVPKVAPKKIPSFCYSPKDEGLCSANVTRYYFNPRYRTCDAFTYTGCGGNDNNFVSREDCKRACAKALKKKKKMPKLRFASRIRKIRKKQF
B2: His-TFPI2(ΔKD1) (protein, UniProt P48307)
chain: DAAQEPTGNNAEIWRIEKVPKVCRLQVSVDDQCEGSTEKYFFNLSSMTCEKFFSGGCHRNRIENRFPDEATCMGFCAPKKIPSFCYSPKDEGLCSANVTRYYFNPRYRTCDAFTYTGCGGNDNNFVSREDCKRACAKALKKKKKMPKLRFASRIRKIRKKQF
B3: His-TFPI2 (protein, UniProt P48307 23-235)
chain: DAAQEPTGNNAEICLLPLDYGPCRALLLRYYYDRYTQSCRQFLYGGCEGNANNFYTWEACDDACWRIEKVPKVCRLQVSVDDQCEGSTEKYFFNLSSMTCEKFFSGGCHRNRIENRFPDEATCMGFCAPKKIPSFCYSPKDEGLCSANVTRYYFNPRYRTCDAFTYTGCGGNDNNFVSREDCKRACAKALKKKKKMPKLRFASRIRKIRKKQF
B4: His-TFPI2(ΔKD3) (protein, UniProt P48307)
chain: DAAQEPTGNNAEICLLPLDYGPCRALLLRYYYDRYTQSCRQFLYGGCEGNANNFYTWEACDDACWRIEKVPKVCRLQVSVDDQCEGSTEKYFFNLSSMTCEKFFSGGCHRNRIENRFPDEATCMGFCAPKKIPSFAKALKKKKKMPKLRFASRIRKIRKKQF

In this test the target is Flag-CLIP1 (UniProt P30622). Put plainly: co-IP; HEK293T cells transfected with Flag-tagged CLIP1 and His-tagged TFPI2 or its mutants; cell protein extract precipitated with anti-FLAG primary antibody.
On to B1, for which the binding result is “binds”.
Then B2, with “no binding”; and B3, with “binds”; and B4, with “binds”.
